In PubChem BioAssay (EPA / NIEHS):
The inconclusive results got no clear call from the source; some entries with a clear call stand among them for comparison. For some assays here: A potency beside an inconclusive call is a rough fit, not a confirmed value. Calls of active or inactive are those of the source. The calls were made as follows: active = hit-call score of the fitted dose curve at least 0.9, where 1 is the maximum; inconclusive = response in the unintended direction; inactive = score below 0.9.

Chains of the proteins cited; added tags and fusions are not shown. Lines headed by an entry give the natural chain unless they say otherwise; changes in a name come on top.
UniProt Q13133, whole entry, looked up: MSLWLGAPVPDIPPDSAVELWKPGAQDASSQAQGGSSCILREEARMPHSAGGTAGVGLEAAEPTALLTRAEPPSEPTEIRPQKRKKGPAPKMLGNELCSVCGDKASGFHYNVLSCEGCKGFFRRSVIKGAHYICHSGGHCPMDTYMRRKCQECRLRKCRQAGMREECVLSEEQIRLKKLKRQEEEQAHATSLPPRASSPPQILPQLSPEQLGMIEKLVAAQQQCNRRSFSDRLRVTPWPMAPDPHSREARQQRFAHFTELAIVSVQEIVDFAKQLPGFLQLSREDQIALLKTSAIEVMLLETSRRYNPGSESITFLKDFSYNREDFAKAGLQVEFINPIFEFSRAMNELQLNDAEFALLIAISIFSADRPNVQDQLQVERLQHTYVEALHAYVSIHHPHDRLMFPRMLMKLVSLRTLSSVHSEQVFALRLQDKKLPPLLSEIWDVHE
UniProt P55055, whole entry, looked up: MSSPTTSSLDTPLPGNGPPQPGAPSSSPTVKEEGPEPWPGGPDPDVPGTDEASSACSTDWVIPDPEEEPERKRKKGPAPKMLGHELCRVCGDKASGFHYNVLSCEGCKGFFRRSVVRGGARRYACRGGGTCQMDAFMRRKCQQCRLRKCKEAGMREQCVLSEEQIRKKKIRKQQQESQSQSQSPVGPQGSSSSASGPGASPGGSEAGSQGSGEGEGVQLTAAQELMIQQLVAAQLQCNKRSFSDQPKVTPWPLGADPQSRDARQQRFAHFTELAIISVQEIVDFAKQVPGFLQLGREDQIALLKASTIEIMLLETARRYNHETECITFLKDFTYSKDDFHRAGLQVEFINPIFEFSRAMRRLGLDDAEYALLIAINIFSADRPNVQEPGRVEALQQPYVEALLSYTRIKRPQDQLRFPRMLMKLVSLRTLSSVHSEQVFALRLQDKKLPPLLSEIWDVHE
UniProt P41235: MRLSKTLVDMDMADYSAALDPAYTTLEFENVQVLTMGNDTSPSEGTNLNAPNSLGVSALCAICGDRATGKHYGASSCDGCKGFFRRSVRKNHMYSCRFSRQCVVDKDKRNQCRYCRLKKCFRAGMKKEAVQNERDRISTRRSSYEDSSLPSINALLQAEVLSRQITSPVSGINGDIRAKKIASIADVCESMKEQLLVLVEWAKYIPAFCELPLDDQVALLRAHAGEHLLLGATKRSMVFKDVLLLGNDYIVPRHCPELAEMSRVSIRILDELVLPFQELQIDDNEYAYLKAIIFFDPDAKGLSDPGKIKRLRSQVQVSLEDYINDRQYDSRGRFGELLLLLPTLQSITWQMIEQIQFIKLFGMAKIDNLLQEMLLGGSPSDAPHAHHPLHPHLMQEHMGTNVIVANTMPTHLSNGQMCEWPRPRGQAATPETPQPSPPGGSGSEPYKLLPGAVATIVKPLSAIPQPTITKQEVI
UniProt P43354, whole entry, looked up: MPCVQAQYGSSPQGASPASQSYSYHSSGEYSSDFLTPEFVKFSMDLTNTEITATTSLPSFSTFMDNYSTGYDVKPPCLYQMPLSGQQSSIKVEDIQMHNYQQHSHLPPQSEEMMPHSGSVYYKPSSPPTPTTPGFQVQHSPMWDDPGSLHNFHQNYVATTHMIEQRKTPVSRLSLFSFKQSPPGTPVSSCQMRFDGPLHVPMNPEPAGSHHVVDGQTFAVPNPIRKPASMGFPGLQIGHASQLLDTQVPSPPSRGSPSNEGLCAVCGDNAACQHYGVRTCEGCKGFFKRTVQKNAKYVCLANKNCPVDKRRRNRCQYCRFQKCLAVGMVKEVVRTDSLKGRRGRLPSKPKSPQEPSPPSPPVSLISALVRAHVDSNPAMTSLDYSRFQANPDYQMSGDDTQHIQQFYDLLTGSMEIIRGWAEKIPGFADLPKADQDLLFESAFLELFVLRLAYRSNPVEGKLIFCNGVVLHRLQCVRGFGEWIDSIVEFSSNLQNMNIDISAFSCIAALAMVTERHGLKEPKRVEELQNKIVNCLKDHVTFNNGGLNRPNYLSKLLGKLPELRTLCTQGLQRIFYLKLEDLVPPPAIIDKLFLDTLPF
UniProt Q07869: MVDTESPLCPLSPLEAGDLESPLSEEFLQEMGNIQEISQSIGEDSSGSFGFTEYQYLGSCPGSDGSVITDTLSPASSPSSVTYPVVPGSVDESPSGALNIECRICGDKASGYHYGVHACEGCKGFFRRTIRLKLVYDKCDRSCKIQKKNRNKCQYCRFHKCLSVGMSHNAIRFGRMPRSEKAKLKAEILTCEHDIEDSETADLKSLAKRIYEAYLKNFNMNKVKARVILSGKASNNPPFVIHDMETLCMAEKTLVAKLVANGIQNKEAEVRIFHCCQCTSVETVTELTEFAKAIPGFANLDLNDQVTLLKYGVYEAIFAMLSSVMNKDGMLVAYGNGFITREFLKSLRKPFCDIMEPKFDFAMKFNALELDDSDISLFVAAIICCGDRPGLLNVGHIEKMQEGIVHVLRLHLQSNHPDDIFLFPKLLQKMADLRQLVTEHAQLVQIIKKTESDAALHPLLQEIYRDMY
UniProt P10826, whole entry, looked up: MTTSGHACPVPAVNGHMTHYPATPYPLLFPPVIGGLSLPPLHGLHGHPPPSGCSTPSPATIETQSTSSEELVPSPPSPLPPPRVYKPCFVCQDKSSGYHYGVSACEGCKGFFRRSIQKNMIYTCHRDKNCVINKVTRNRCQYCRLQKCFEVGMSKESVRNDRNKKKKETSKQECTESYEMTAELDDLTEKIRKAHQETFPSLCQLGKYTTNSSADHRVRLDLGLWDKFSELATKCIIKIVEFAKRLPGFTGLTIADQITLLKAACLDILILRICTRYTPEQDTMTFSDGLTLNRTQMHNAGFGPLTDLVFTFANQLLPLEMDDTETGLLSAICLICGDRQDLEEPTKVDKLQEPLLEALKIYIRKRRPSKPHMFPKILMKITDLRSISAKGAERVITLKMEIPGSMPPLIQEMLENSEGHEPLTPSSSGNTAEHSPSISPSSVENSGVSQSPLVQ
UniProt P10276, whole entry, looked up: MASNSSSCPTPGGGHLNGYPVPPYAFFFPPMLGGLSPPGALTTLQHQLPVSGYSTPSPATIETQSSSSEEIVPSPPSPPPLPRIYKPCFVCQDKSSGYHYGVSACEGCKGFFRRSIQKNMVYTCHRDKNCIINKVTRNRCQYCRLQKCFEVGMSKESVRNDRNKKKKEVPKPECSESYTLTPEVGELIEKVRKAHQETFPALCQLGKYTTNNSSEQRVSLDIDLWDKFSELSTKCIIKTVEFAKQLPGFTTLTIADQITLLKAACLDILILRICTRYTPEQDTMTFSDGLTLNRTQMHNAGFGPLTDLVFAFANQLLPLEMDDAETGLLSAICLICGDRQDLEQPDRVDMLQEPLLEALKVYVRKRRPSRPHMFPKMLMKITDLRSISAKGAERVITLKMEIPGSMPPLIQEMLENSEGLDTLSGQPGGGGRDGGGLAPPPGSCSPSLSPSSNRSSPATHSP
UniProt P19793: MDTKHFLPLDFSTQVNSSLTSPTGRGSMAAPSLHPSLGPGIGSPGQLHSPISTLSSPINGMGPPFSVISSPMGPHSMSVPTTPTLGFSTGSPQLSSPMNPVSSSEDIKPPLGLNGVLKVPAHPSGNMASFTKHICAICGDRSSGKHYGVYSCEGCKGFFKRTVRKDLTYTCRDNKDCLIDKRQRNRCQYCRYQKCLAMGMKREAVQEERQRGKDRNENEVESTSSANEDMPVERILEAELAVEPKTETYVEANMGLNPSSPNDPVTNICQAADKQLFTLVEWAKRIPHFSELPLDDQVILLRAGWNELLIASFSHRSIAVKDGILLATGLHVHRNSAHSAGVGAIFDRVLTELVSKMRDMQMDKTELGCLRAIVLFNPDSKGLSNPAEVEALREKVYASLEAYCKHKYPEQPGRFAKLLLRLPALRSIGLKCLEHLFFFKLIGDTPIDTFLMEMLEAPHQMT
UniProt P28702: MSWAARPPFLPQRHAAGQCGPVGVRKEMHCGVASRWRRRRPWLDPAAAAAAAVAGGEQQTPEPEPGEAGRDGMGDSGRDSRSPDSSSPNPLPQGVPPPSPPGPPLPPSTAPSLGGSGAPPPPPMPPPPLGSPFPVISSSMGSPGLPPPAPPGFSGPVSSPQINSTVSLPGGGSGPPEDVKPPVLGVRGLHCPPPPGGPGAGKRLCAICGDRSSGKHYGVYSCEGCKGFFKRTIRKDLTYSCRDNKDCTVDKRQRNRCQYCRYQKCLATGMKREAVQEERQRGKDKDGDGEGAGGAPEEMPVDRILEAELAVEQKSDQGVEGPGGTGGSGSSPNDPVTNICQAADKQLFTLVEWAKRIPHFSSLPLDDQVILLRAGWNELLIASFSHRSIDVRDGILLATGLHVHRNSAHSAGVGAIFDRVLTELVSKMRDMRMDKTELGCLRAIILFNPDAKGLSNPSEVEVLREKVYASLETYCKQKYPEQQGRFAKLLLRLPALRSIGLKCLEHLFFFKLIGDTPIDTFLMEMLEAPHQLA
UniProt P10827: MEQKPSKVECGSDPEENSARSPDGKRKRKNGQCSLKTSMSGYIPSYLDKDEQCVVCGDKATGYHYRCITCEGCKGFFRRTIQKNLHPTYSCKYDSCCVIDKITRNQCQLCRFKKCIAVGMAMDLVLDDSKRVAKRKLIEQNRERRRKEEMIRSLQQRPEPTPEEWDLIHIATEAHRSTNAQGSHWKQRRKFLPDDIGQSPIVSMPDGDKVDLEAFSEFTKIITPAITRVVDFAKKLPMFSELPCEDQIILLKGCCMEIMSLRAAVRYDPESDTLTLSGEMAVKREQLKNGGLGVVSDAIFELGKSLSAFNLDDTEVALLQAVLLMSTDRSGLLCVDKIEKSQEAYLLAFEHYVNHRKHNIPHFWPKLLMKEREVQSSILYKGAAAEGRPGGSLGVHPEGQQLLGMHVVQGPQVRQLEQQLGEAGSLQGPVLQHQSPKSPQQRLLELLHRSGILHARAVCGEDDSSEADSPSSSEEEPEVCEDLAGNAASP
UniProt P62508: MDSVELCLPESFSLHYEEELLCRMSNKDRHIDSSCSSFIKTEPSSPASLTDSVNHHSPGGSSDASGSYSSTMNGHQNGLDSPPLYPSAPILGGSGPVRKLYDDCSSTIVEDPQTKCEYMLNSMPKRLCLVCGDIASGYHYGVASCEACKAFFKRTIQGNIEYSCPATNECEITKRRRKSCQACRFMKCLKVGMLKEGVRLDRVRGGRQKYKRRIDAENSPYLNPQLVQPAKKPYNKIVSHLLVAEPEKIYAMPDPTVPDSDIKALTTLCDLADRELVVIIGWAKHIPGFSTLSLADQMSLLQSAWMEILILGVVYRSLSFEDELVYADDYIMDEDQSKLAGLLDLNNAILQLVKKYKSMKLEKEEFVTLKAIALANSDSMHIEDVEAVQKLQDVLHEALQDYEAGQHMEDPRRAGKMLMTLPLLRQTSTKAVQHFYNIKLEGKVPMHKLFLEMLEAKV
UniProt Q92753: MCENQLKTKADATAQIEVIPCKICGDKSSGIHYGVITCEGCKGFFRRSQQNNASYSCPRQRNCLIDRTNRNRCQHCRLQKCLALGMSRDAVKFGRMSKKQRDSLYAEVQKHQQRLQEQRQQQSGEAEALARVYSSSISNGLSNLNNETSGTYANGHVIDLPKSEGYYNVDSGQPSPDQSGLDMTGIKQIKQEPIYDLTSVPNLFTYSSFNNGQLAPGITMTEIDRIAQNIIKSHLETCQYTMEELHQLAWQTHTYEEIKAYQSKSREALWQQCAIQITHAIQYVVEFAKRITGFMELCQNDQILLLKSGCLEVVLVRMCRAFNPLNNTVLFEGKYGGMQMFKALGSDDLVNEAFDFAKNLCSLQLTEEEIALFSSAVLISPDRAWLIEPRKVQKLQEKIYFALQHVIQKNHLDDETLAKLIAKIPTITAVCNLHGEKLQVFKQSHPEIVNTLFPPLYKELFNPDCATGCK
UniProt P11474: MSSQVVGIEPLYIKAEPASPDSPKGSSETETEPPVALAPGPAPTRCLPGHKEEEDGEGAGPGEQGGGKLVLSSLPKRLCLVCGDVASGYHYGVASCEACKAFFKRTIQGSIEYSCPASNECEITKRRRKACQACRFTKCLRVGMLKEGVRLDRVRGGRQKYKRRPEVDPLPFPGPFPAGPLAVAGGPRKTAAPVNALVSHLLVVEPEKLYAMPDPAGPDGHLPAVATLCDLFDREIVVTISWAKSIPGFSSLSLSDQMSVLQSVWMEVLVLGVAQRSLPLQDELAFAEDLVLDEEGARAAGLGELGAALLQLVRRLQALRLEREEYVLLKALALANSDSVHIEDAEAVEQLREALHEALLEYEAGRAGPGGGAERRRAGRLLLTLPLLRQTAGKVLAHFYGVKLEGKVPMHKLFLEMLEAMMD

Key:
[1] = ATG_GAL4_TRANS: Attagene TRANS-FACTORIAL HepG2 Assay for GAL4 (Internal Marker) (AID 2282976); details: HepG2 Attagene TRANS GAL4 internal marker reporter
Outline: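 RT-PCR/capillary electrophoresis readout of reporter mRNA. HepG2, transient MRTU transfection (GAL4-UAS reporters), 24 h compound exposure. Background-control endpoint, positive direction vs DMSO baseline.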

[2] = target: Oxysterols receptor LXR-alpha (Homo sapiens) (UniProt Q13133); assay: ATG_LXRa_TRANS: Attagene TRANS-FACTORIAL HepG2 Assay for human Liver X Receptor alpha (LXRa) (AID 2282980); details: HepG2 Attagene TRANS reporter, LXRa transactivation
Outline: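 Read-out: reporter transcript levels by RT-PCR plus capillary electrophoresis, fluorescence intensity. Transiently transfected HepG2, exogenous NR-GAL4 chimera, GAL4-UAS reporters; 24 h compound exposure. Activity = increase over DMSO negative control.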

[3] = target: Oxysterols receptor LXR-beta (Homo sapiens) (UniProt P55055); assay: ATG_LXRb_TRANS: Attagene TRANS-FACTORIAL HepG2 Assay for human Liver X Receptor beta (LXRb) (AID 2282981); details: HepG2 Attagene TRANS GAL4-LXRb reporter, mRNA
Outline: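 Transient transfection HepG2 (multiplexed RTUs, GAL4-UAS); NR-Gal4 chimera; 24 h exposure; RNA → RT-PCR → 6-FAM primer extension → HpaI → CE; increase vs DMSO.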

[4] = target: Hepatocyte nuclear factor 4-alpha (Homo sapiens) (UniProt P41235); assay: ATG_HNF4a_TRANS: Attagene TRANS-FACTORIAL HepG2 Assay for human Hepatocyte Nuclear Factor 4 alpha (HNF4a) (AID 2282982); details: HepG2 HNF4a transactivation reporter, mRNA readout
Outline: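 Readout is fluorescent reporter-transcript fragments resolved by capillary electrophoresis after RT-PCR from HepG2 cells dosed for 24 h. Cells carried transfected GAL4-UAS reporter constructs measuring exogenous NR-GAL4 chimera activity; DMSO served as baseline.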

[5] = target: Nuclear receptor subfamily 4 group A member 2 (Homo sapiens) (UniProt P43354); assay: ATG_NURR1_TRANS: Attagene TRANS-FACTORIAL HepG2 Assay for human Nuclear Receptor Related Protein 1 (NURR1) (AID 2282985); details: HepG2 Attagene TRANS reporter, mRNA readout
Outline: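 Transient transfection of HepG2, human liver cells, with multiple GAL4-UAS reporter transcription units. Cells dosed 24 h, RNA isolated, reverse-transcribed, PCR-amplified, FAM-labelled, HpaI-digested, sized by capillary electrophoresis. DMSO served as negative control.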

[6] = target: human Peroxisome Proliferator-activated Receptor alpha (PPARa), PPARA (gene 5465) (UniProt Q07869); assay: ATG_PPARa_TRANS: Attagene TRANS-FACTORIAL HepG2 Assay for human Peroxisome Proliferator-activated Receptor alpha (PPARa) (AID 2283001);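 as to AC50: potency for gain of reporter signal over DMSO so agonist or activator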
Outline: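 Read-out is fluorescence of reporter cDNA fragments resolved by capillary electrophoresis after RT-PCR. Human HepG2 liver cells carried transfected PPARa-Gal4 chimera and GAL4-UAS reporter units, treated 24 h; activity scored as increase over DMSO.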

[7] = target: human Retinoic Acid Receptor beta (RARb), RARB (gene 5915) (UniProt P10826); assay: ATG_RARb_TRANS: Attagene TRANS-FACTORIAL HepG2 Assay for human Retinoic Acid Receptor beta (AID 2283004)
Outline: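 Readout is reporter mRNA induction: RNA reverse-transcribed, PCR-amplified, FAM-labelled, HpaI-cut and resolved by capillary electrophoresis. Transiently transfected HepG2 cells carrying exogenous NR–Gal4 chimeras were dosed for 24 h; activity fitted upward relative to DMSO.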

[8] = target: Retinoic acid receptor alpha (Homo sapiens) (UniProt P10276); assay: ATG_RARa_TRANS: Attagene TRANS-FACTORIAL HepG2 Assay for human Retinoic Acid Receptor alpha (RARa) (AID 2283005);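 as to AC50: potency for increased reporter signal meaning RARa activation over DMSO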
Outline: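 Reporter transcripts, measured by RT-PCR with fluorescent labeling and capillary electrophoresis after 24 h dosing, reflect activity of an exogenous human RARa–GAL4 fusion in transiently transfected HepG2. Fitted for increase relative to DMSO.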

[9] = target: human RAR-related Orphan Receptor gamma (RORg), RORC (gene 6097) (UniProt P51449); assay: ATG_RORg_TRANS: Attagene TRANS-FACTORIAL HepG2 Assay for human RAR-related Orphan Receptor gamma (RORg) (AID 2283011);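 as to AC50: potency for induction of reporter transcripts above DMSO so activators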
Outline: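 Transient MRTU transfection of HepG2 (TRANS format, exogenous NR-Gal4 chimera). 24 h dosing. Total RNA → oligo(dT) RT → PCR → 6-FAM labelling → HpaI cut → CE. Gain vs DMSO.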

[10] = target: Retinoic acid receptor RXR-alpha (Homo sapiens) (UniProt P19793); assay: ATG_RXRa_TRANS: Attagene TRANS-FACTORIAL HepG2 Assay for human Retinoid X Receptor alpha (RXRa) (AID 2283012)
Outline: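 HepG2 cells transiently transfected with GAL4-UAS reporter units and chimeric RXRa-Gal4 protein, treated 24 h. Reporter mRNA measured by RT-PCR, fluorescent labelling, HpaI digestion and capillary electrophoresis. Induction fitted against DMSO.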

[11] = target: human Retinoid X Receptor beta (RXRb), RXRB (gene 6257) (UniProt P28702); assay: ATG_RXRb_TRANS: Attagene TRANS-FACTORIAL HepG2 Assay for human Retinoid X Receptor beta (RXRb) (AID 2283013)
Outline: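 HepG2 cells were transiently transfected with multiplexed GAL4-UAS reporters and a chimeric RXRb-Gal4 construct, then exposed for 24 h. Reporter mRNA was quantified by RT-PCR, FAM labeling, HpaI digestion and capillary electrophoresis; gain of signal was scored against DMSO.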

[12] = target: human Thyroid Receptor alpha (THRa1), THRA (gene 7067) (UniProt P10827); assay: ATG_THRa1_TRANS: Attagene TRANS-FACTORIAL HepG2 Assay for human Thyroid Receptor alpha (THRa1) (AID 2283014)
Outline: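 Transient HepG2 transfection, NR-Gal4 chimera driving GAL4-UAS reporters; 24 h compound exposure; total RNA, oligo(dT) RT, PCR, fluorescent primer extension, capillary electrophoresis. Upward direction vs DMSO control.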

[13] = target: Estrogen-related receptor gamma (Homo sapiens) (UniProt P62508); assay: ATG_ERRg_TRANS: Attagene TRANS-FACTORIAL HepG2 Assay for human Estrogen-Related Receptor gamma (ERRg) (AID 2282977); details: HepG2 Attagene TRANS reporter, ERRg transactivation;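 also: hits increase reporter signal over DMSO so potencies reflect activators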
Outline: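 HepG2 cells transiently transfected with multiplexed GAL4-UAS reporter units driven by chimeric NR-Gal4 proteins; 24 h exposure. Reporter mRNA quantified by RT-PCR, fluorescent labelling, HpaI digestion and capillary electrophoresis; gain of signal vs DMSO.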

[14] = target: human Retinoic Acid Receptor gamma (RARg), RARG (gene 5916) (UniProt P13631); assay: ATG_RARg_TRANS: Attagene TRANS-FACTORIAL HepG2 Assay for human Retinoic Acid Receptor gamma (RARg) (AID 2283009);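 as to AC50: AC50 is for reporter induction above DMSO meaning RARg activation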
Outline: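 HepG2 transiently transfected with GAL4-UAS reporter units and chimeric NR-Gal4 constructs; 24 h compound exposure. Reporter mRNA quantified by RT-PCR, FAM labeling, HpaI digestion and capillary electrophoresis; gain-of-signal versus DMSO.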

[15] = target: human RAR-related Orphan Receptor beta (RORb), RORB (gene 6096) (UniProt Q92753); assay: ATG_RORb_TRANS: Attagene TRANS-FACTORIAL HepG2 Assay for human RAR-related Orphan Receptor beta (RORb) (AID 2283010);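 as to AC50: potency for increased reporter mRNA meaning activation of RORb-Gal4 chimera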
Outline: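 HepG2 cells transiently transfected with GAL4-UAS reporter units expressing chimeric NR-Gal4 protein; reporter mRNA measured 24 h after dosing by RT-PCR, 6-FAM labelling and capillary electrophoresis. Gain-of-signal fitted relative to DMSO baseline.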

[16] = ACEA_ER_AUC_viability: ACEA Biosciences xCELLigence Real-Time Cell Analysis on Estrogen Receptor Agonism for Viability (AID 2283782);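 also: continuous compound exposure with impedance area under curve over 80 h; hit means loss of impedance signal meaning reduced cell growth or viability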
Outline: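 T-47D; phenol red-free RPMI1640 + 10% CS-FBS; 8 conc., 1:4 serial, max 100 uM final, ≤0.5% DMSO; n = 2; continuous exposure; impedance monitored to 80 h post-dose; AUC vs DMSO.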

[17] = target: Steroid hormone receptor ERR1 (Homo sapiens) (UniProt P11474); assay: ATG_ERRa_TRANS: Attagene TRANS-FACTORIAL HepG2 Assay for human Estrogen-Related Receptor alpha (ERRa) (AID 2282971); details: HepG2 Attagene TRANS reporter, ERRa transactivation
Outline: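 Transfected HepG2, 24 h dosing, ERRa-Gal4 chimera driving GAL4-UAS reporter. Readout: reporter mRNA via RT-PCR plus capillary electrophoresis (fluorescence). Positive direction vs DMSO control.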

[18] = TOX21_p53_BLA_p2_viability: Viability Assessment in the Tox21 HCT-116 p53 Agonism Beta-lactamase Assay, Phase 2 (AID 2283591);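 also: compound exposure lasted 16 h at 37 °C; actives lower the ATP signal meaning cytotoxicity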
Outline: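 Cytotoxicity readout: CellTiter-Glo ATP luminescence, 30 min at room temperature, after the beta-lactamase read. Cells were HCT116 exposed 16 h at 37C to compounds pin-transferred at 217-fold dilution from DMSO stocks.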

[19] = TOX21_p53_BLA_p3_viability: Viability Assessment in the Tox21 HCT-116 p53 Agonism Beta-lactamase Assay, Phase 3 (AID 2283593);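 also: cells exposed to compound for 16 h before reading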
Outline: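 Cellular ATP was quantified by CellTiter-Glo luminescence, read after 30 min at room temperature. Beforehand, HCT116 cells (4000/well) received compound 5 h post-seeding, 217-fold diluted from DMSO, then incubated 16 h at 37C.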

[20] = TOX21_p53_BLA_p4_viability: Viability Assessment in the Tox21 HCT-116 p53 Agonism Beta-lactamase Assay, Phase 4 (AID 2283597);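 also: hits lower the luminescence signal meaning cytotoxicity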
Outline: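 We seeded HCT116 p53 reporter cells at 4000/well and waited 5 h. We then added compounds in DMSO at a 217-fold dilution and incubated for 16 h. Viability was read as CellTiter-Glo luminescence after 30 min at RT.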

Measured: AC50

CCc1c(Br)c(Br)c(Br)c(Br)c1Br
inconclusive: [1] 100 µM | [3] 19.8 µM | [4] 100 µM | [6] 144 µM | [9] 100 µM
active: [5] 26.8 µM | [11] 5.94 µM
inactive: [2] | [7] | [8] | [10] | [12]

O=C(O)C(F)(F)C(F)(F)OC(F)(F)F
inconclusive: [13] 100 µM | [4] 100 µM | [5] 100 µM | [10] 100 µM | [11] 100 µM | [16] 1.04 µM
inactive: [3] | [6] | [7] | [8] | [14] | [15] | [9]

CN(C)N=Nc1ccccc1
inactive: [17] | [13] | [4] | [11]
inconclusive: [15] 180 µM | [18] 0.00111 µM | [19] 46.1 µM

Nc1ccc(Cl)c([N+](=O)[O-])c1
inconclusive: [2] 100 µM | [3] 100 µM | [7] 100 µM | [8] 100 µM | [14] 100 µM | [15] 100 µM | [11] 0.086 µM | [12] 24.4 µM

CNS(=O)(=O)c1cc(C(=O)N2CCC(CCN3C4CCC3CC(n3c(C)nc5ccccc53)C4)(c3cccc(F)c3)CC2)c(Cl)cc1F (centres undefined)
active: [18] 26.9 µM | [19] 46.1 µM | [20] 16.2 µM | [16] 19.2 µM
inconclusive: [2] 11 µM | [3] 6.85 µM | [4] 11 µM | [6] 11 µM | [8] 11 µM | [15] 6.61 µM | [10] 3.08 µM
inactive: [1] | [7] | [14] | [11]
